Laboratory results: PubChem BioAssay AID1159584 (Peter MacCallum Cancer Centre, 2016)
The deposit covers about 18,000 reagents; shown is a part drawn at random. Reagent sequences are not shown. The record does not give: the amount of reagent, the time to read-out.

- Purpose: 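Knock-downs that harm CDH1-null cells more than parental MCF10A cells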 (primary screen)
- Cell system: human MCF10A breast epithelial cells, parental and CDH1-null
- Reagent: siRNA against human genes
- Measurement: 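ATP luminescence (CellTiter-Glo) viability per line relative to mean mock wells over all plates, and the ratio of CDH1-null to parental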
- Direction: CDH1-null / parental viability ratio: higher = CDH1-null cells survive relatively better than parental; CDH1-null viability vs mock: higher = more viable CDH1-null cells; parental viability vs mock: higher = more viable parental cells

Target gene | CDH1-null / parental viability ratio | CDH1-null viability vs mock (fraction of mock) | parental viability vs mock (fraction of mock)
NTSR1 (neurotensin receptor 1) | 1.54 | 0.8 | 0.52
CLEC12B (C-type lectin domain family 12 member B) | 0.98 | 0.57 | 0.58
GDAP2 (ganglioside induced differentiation associated protein 2) | 0.89 | 0.62 | 0.7
EEF1D (eukaryotic translation elongation factor 1 delta) | 1 | 0.78 | 0.78
GGT6 (gamma-glutamyltransferase 6) | 0.79 | 0.38 | 0.48
KIRREL2 (kirre like nephrin family adhesion molecule 2) | 1.23 | 0.79 | 0.64
MASP1 (MBL associated serine protease 1) | 1.05 | 0.68 | 0.65
SENP3 (SUMO specific peptidase 3) | 1.15 | 0.63 | 0.55
RHOQ (ras homolog family member Q) | 1.11 | 1 | 0.9
TAAR5 (trace amine associated receptor 5) | 1.19 | 0.83 | 0.7
PROS1 (protein S) | 0.76 | 0.61 | 0.8
C7 (complement C7) | 0.73 | 0.59 | 0.81
SDK2 (sidekick cell adhesion molecule 2) | 1.34 | 1.02 | 0.76
OGG1 (8-oxoguanine DNA glycosylase) | 1.23 | 0.96 | 0.78
OR4K2 (olfactory receptor family 4 subfamily K member 2) | 0.85 | 0.57 | 0.67
B9D2 (B9 domain containing 2) | 0.81 | 0.83 | 1.02
VDAC1 (voltage dependent anion channel 1) | 1.11 | 1.08 | 0.97
EIF2AK4 (eukaryotic translation initiation factor 2 alpha kinase 4) | 1.04 | 1.05 | 1.01
DCTN4 (dynactin subunit 4) | 1.03 | 0.72 | 0.7
RARRES1 (retinoic acid receptor responder 1) | 1 | 0.74 | 0.74
AGMO (alkylglycerol monooxygenase) | 1.19 | 0.86 | 0.72
CMA1 (chymase 1) | 1.13 | 0.7 | 0.62
MORN1 (MORN repeat containing 1) | 1.21 | 0.94 | 0.78
CYBA (cytochrome b-245 alpha chain) | 0.82 | 0.71 | 0.87
KCNJ9 (potassium inwardly rectifying channel subfamily J member 9) | 1.23 | 1.16 | 0.94
TAS2R40 (taste 2 receptor member 40) | 0.93 | 0.51 | 0.55
TEAD4 (TEA domain transcription factor 4) | 1.19 | 1.21 | 1.02

Sorted by “parental viability vs mock (fraction of mock)” (high to low): some entries from above
Target gene | CDH1-null / parental viability ratio | CDH1-null viability vs mock (fraction of mock) | parental viability vs mock (fraction of mock)
EIF2AK4 (eukaryotic translation initiation factor 2 alpha kinase 4) | 1.04 | 1.05 | 1.01
VDAC1 (voltage dependent anion channel 1) | 1.11 | 1.08 | 0.97
RARRES1 (retinoic acid receptor responder 1) | 1 | 0.74 | 0.74
DCTN4 (dynactin subunit 4) | 1.03 | 0.72 | 0.7

The list goes on:
Target gene | CDH1-null / parental viability ratio | CDH1-null viability vs mock (fraction of mock) | parental viability vs mock (fraction of mock)
CYTH3 (cytohesin 3) | 0.76 | 0.64 | 0.84
IL26 (interleukin 26) | 1.11 | 0.84 | 0.76
PHOX2A (paired like homeobox 2A) | 1.22 | 1.07 | 0.88
ZIM3 (zinc finger imprinted 3) | 0.73 | 0.64 | 0.88
DCTPP1 (dCTP pyrophosphatase 1) | 1.1 | 0.92 | 0.84
RSKR (ribosomal protein S6 kinase related) | 0.88 | 0.8 | 0.91
GABRB2 (gamma-aminobutyric acid type A receptor subunit beta2) | 2 | 0.58 | 0.29
ARPC4 (actin related protein 2/3 complex subunit 4) | 0.99 | 0.97 | 0.98
LRP10 (LDL receptor related protein 10) | 0.99 | 1.05 | 1.06
HTT (huntingtin) | 1.08 | 1.04 | 0.96
UGT1A9 (UDP glucuronosyltransferase family 1 member A9) | 0.85 | 0.62 | 0.73
CALCB (calcitonin related polypeptide beta) | 1.63 | 1.14 | 0.7
XPO7 (exportin 7) | 1.09 | 0.74 | 0.68
KCNA10 (potassium voltage-gated channel subfamily A member 10) | 1.12 | 1.06 | 0.95
FGF11 (fibroblast growth factor 11) | 0.95 | 0.97 | 1.02
MNAT1 (MNAT1 component of CDK activating kinase) | 0.84 | 0.89 | 1.06
MRI1 (methylthioribose-1-phosphate isomerase 1) | 0.87 | 0.8 | 0.92
PTCHD3 (patched domain containing 3 (gene/pseudogene)) | 0.86 | 0.64 | 0.74
NFE2L1 (NFE2 like bZIP transcription factor 1) | 0.98 | 0.62 | 0.63
CRISP1 (cysteine rich secretory protein 1) | 1.36 | 0.8 | 0.59
SNRPC (small nuclear ribonucleoprotein polypeptide C) | 0.91 | 0.5 | 0.55
SYS1 (SYS1 golgi trafficking protein) | 1.1 | 0.56 | 0.51
QNG1 (Q-nucleotide N-glycosylase 1) | 1.14 | 0.74 | 0.65
NDUFB8 (NADH:ubiquinone oxidoreductase subunit B8) | 1.06 | 0.87 | 0.82
RCBTB1 (RCC1 and BTB domain containing protein 1) | 1.08 | 0.82 | 0.76
FBXO2 (F-box protein 2) | 0.81 | 0.5 | 0.62
SFRP2 (secreted frizzled related protein 2) | 1.1 | 0.9 | 0.82
MTRFR (mitochondrial translation release factor in rescue) | 1.04 | 0.98 | 0.94
COLCA1 (colorectal cancer associated 1) | 1.18 | 1.13 | 0.96
PTPN5 (protein tyrosine phosphatase non-receptor type 5) | 1.18 | 0.66 | 0.56
OR13D1 (olfactory receptor family 13 subfamily D member 1) | 1.02 | 0.92 | 0.9
AP1M1 (adaptor related protein complex 1 subunit mu 1) | 1.04 | 0.57 | 0.55
NPHP4 (nephrocystin 4) | 1.46 | 1.04 | 0.71
KLHL41 (kelch like family member 41) | 0.82 | 0.83 | 1.01
PTPN1 (protein tyrosine phosphatase non-receptor type 1) | 1.22 | 0.84 | 0.69
RAE1 (ribonucleic acid export 1) | 1.11 | 0.82 | 0.74
ZNF646 (zinc finger protein 646) | 0.87 | 0.61 | 0.7
SRP14 (signal recognition particle 14) | 0.85 | 0.61 | 0.72
NR2C1 (nuclear receptor subfamily 2 group C member 1) | 0.86 | 0.72 | 0.84
RAP2B (RAP2B, member of RAS oncogene family) | 1.07 | 1.08 | 1.01
TM4SF19 (transmembrane 4 L six family member 19) | 0.88 | 0.63 | 0.72
